Assay results from patent US5446147A (Trustees of the University of Pennsylvania, priority 1992, dated 1995).
pKi: −log10 of the molar value.

Sequences of proteins named here, by UniProt entry; tags and fusion partners are left off.
UniProt P61169, whole entry: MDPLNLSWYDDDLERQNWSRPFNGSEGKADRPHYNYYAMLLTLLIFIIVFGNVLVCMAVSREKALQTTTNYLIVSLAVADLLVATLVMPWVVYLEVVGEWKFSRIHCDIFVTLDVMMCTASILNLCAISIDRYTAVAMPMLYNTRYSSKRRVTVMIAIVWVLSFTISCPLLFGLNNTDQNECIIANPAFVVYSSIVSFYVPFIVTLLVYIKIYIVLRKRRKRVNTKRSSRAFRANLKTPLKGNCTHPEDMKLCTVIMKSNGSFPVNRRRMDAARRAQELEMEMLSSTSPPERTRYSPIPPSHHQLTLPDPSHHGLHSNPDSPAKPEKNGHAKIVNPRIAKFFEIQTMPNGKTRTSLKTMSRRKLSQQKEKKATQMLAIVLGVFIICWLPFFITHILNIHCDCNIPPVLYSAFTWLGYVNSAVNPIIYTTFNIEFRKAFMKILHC

Molecular target: T1, dopamine D2 receptor (Rat Striatal Membranes) (Rattus norvegicus, UniProt P61169)
T1 construct: Rat tissue homogenates were prepared as described previously; from tissue; host or cells: rat striatal membranes (tissue homogenate)
Experiment: Competition for ^125 I-FIDA-1 binding to rat striatal membranes
Conditions: 15 min at 37° C., nonspecific binding with 10 μM (+)butaclamol, read-out: Ki, inhibition constant on ^125 I-FIDA-1 binding
Procedure: Rat tissue homogenates were prepared as described previously. Murphy, R. A., et al., J. Med. Chem. 33, 171-178 (1990). The binding assays were performed by incubating 50 μL of tissue preparations containing 40-60 μg of protein with appropriate amounts of ^125 I-labeled ligand and competitors in a total volume of 0.2 mL of the assay buffer. After an incubation period of 15 min at 37° C. (with stirring), the samples were rapidly filtered in a cell harvester (Brandel M-24R) under vacuum through Whatman GF/B glass-fiber filters pretreated with […] protamine base and washed with 3×5 mL of cold (4° C.) 50 mM Tris-HCI buffer, pH 7.4. The nonspecific binding was obtained in the presence of 10 μM (+)butaclamol. The filters were counted in a γ counter (Beckman 5500) at an efficiency of 70%. Both Scatchard and competition experiments were analyzed with the iterative nonlinear least squares curve-fitting program LIGAND.

CC(C)NCC(O)COc1cccc2ccccc12 (racemic) [(±) propranolol]
pKi: < 5.00
